# Measurements published in patent US20250177503A1, “COMPOSITIONS AND METHODS FOR TREATING AUTOIMMUNE DISORDERS” (THE REGENTS OF THE UNIVERSITY OF MICHIGAN, priority 2022, published 2025).
# Some entries share one result that the patent states for a list of compounds.
# B1: IL-2: recombinant murine IL-2 (wild type IL-2 protein) (protein, UniProt P04351 21-169, looked up)
# Interleukin-2: APTSSSTSSSTAEAQQQQQQQQQQQQHLEQLLMDLQELLSRMENYRNLKLPRMLTFKFYLPKQATELKDLQCLEDELGPLRHVLDLTQSKSFQLEDAENFISNIRVTVVKLKGSDNTFECQFDDESATVVDFLRRWIAFCQSIISTSPQ
# Tested on: CD4+CD25+Foxp3+T regulatory cells (Tregs)
# Assay: Example III: dosing regimen optimisation, ND-OVA + IL-2/IC vs ND-OVA + wtIL-2, flow cytometry of peripheral blood CD4+ T cells
# Assay type: in vivo, C57BL/6 mice
# Conditions: five doses of IL-2
# Method: Animals were cared for following federal, state, and local guidelines. All work performed on animals was in accordance with and approved by Institutional Animal Care & Use Committee (IACUC) at the University of Michigan, Ann Arbor. Seven-week-old female C57BL/6 mice were randomly divided into 6 groups with 5 mice in each group. For Group 1 (ND-OVA_D−3,+7+IL2/IC_D3,4,5): 0.1 mL of ND-OVA (containing 0.1 mg OVA-II peptide) was injected into each mouse subcutaneously at the tail base at Day −3 and Day 7; 0.1 mL IL2/IC (containing 1 μg murine IL-2 and […] IL-2 mAb) was injected into each mouse intraperitoneally (i.p.) at Days 0, 1, 2, and Days 10, 11, 12. For Group 2 (ND-OVA_D−4,+6+IL2/IC_D4,5,6): 0.1 mL of ND-OVA (containing 0.1 mg OVA-II peptide) was injected into each mouse subcutaneously at the tail base at Day −4 and Day 6; 0.1 mL IL2/IC (containing […] murine IL-2 and 5 μg IL-2 mAb) was injected into each mouse intraperitoneally (i.p.) at Days 0, 1, 2, and Days 10, 11, 12. For Group 3 (ND-OVA_D−3,+7+IL2/IC_D3,4,5,6,7): 0.1 mL of ND-OVA (containing 0.1 mg OVA-II peptide) was injected into each mouse subcutaneously at the tail base at Day −3 and Day 7; 0.1 mL IL2 (containing 1 μg murine IL-2) was injected into each mouse intraperitoneally (i.p.) at Days 0, 1, 2, 3, 4 and Days 10, 11, 12, 13, 14. […]
molecule,measurement,value
B1,frequencies of Tregs,≤ 10%
